## Percent effect of library compounds

Amino acid sequences for entries named in this document (tags omitted). Residues count along the entry.
UniProt P9WFT3, whole entry: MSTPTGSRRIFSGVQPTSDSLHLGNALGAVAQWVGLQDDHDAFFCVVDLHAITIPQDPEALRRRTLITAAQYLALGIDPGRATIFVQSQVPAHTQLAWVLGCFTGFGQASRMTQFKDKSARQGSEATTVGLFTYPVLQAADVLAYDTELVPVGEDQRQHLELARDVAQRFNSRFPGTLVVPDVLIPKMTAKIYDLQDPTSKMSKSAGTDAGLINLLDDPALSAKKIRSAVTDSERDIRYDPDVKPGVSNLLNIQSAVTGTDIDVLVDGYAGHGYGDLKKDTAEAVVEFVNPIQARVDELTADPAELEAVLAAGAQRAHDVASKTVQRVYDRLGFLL
UniProt P9WPC5, whole entry: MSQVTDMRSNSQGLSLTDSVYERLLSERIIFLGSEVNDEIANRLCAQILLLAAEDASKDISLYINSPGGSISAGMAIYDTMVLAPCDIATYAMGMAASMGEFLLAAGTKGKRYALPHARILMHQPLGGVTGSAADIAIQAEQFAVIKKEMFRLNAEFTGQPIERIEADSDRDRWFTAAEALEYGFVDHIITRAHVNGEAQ
UniProt P9WPC3, whole entry partner: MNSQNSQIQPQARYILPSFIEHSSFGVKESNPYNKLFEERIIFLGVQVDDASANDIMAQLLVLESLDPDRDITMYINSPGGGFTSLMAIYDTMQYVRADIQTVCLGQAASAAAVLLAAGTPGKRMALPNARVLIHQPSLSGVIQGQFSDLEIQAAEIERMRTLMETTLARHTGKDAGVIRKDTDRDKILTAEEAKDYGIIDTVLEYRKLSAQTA
UniProt I6X8D2, whole entry: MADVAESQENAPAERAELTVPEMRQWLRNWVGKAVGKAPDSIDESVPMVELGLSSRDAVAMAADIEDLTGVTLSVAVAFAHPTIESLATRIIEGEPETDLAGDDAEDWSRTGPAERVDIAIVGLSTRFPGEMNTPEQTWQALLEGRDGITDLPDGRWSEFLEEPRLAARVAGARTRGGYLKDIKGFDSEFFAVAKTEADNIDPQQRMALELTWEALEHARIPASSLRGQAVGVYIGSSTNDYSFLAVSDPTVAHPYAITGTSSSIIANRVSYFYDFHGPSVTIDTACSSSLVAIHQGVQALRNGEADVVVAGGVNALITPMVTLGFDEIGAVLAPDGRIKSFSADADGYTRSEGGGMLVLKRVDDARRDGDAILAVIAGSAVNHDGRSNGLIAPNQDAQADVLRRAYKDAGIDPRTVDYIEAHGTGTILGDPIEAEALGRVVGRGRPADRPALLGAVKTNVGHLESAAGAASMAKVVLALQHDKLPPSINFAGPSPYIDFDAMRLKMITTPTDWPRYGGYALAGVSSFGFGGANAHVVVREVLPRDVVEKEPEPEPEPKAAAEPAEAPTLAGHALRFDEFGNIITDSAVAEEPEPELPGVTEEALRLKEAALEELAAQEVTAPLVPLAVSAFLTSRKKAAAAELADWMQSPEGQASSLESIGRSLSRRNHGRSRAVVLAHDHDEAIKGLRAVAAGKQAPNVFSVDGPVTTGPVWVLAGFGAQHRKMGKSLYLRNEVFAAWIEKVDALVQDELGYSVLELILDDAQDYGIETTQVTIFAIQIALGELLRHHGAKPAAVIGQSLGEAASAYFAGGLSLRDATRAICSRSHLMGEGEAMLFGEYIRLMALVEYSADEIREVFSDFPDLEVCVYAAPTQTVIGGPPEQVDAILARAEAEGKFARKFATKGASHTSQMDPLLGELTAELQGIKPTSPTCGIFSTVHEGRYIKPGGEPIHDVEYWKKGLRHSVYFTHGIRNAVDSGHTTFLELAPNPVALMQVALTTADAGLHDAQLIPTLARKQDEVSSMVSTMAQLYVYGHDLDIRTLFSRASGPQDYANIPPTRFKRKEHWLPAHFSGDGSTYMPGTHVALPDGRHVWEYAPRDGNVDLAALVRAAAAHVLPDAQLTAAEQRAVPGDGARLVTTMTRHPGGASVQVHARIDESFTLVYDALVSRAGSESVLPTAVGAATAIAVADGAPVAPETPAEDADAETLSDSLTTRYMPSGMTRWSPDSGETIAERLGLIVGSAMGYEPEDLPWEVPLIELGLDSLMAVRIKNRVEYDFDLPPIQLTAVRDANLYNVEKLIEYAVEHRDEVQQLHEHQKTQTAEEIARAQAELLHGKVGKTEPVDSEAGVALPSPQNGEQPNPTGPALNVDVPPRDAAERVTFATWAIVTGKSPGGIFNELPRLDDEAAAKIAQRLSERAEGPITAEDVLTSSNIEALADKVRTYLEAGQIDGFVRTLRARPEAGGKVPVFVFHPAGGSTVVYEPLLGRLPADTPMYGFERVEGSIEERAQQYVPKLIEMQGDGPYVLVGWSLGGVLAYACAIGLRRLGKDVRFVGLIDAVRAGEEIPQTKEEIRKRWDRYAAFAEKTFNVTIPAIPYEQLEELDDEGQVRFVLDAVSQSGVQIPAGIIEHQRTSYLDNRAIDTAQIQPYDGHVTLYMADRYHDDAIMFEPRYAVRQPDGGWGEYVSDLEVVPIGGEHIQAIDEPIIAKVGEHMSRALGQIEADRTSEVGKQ
UniProt Q8IDJ8, 1-583: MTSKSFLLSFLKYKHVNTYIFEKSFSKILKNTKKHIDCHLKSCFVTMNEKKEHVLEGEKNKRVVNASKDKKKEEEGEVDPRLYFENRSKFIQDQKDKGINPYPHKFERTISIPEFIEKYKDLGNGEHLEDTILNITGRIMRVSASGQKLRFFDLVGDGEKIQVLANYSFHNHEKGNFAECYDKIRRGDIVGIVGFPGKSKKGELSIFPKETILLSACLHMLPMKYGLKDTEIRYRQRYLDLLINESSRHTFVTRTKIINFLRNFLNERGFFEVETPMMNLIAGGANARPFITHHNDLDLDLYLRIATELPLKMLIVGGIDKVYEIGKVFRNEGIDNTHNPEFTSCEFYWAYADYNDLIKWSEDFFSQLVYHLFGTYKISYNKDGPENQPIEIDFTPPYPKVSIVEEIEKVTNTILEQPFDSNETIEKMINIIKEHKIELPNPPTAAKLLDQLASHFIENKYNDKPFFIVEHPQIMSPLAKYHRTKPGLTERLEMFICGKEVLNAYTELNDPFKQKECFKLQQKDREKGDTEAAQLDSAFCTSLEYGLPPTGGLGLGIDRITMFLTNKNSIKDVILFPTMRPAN

Source: ChEMBL document CHEMBL3988442, “University of Dundee, Small-Polar-MMV Screening Library” (2021).

MtTrpRS: 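Enzyme assay of tryptophanyl-tRNA synthetase; the read-out is not stated. Target: Tryptophan-tRNA ligase, Mycobacterium tuberculosis (UniProt P9WFT3). Compounds at 10 µM. Direction is not recorded; retested compounds ran higher, which suggests that high means inhibition. Size under these conditions: about 65,000 compounds, about 64 of them at 50% or above in at least one test.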
ClpP1P2: 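Protease assay of ClpP1P2, read by the AMC dye that it sets free. Target: ClpP1P2, Mycobacterium tuberculosis (UniProt P9WPC5 and UniProt P9WPC3). Tested at 50 µM. Higher reads as stronger inhibition, judged from the few compounds that gave an IC50. Most other retested compounds had strongly negative values. About 69,000 compounds were tested under these conditions; 0.015% (about 10) showed 50% or more at least once.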
Pks13 thioesterase: 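Enzyme assay of the thioesterase domain of polyketide synthase 13; the read-out is not stated. Target: Polyketide synthase Pks13, Mycobacterium tuberculosis (UniProt I6X8D2). Tested at 30 µM. Higher reads as stronger inhibition (inferred from which compounds were picked for retests). Size under these conditions: about 67,000 compounds, about 300 of them at 50% or above in at least one test.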
PfKRS1: 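Lysine-tRNA ligase, Plasmodium falciparum 3D7 (UniProt Q8IDJ8). Enzyme assay of the cytosolic lysyl-tRNA synthetase in 384-well plates, read by luminescence. Concentration: 30 µM. Direction is inferred from only a few compounds that gave an IC50; most scored high, so higher reads as stronger inhibition. Size under these conditions: about 69,000 compounds, about 49 of them at 50% or above in at least one test.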

Each number is a percent effect as filed.
The record does not define 0% and 100%; most values in the screen are far below 50% and negative numbers occur (in some assays of this library far below -100).
The compounds are a random part of those screened.
A dash means the value is not listed here; it may have been measured.

Compound,MtTrpRS,ClpP1P2,Pks13 thioesterase,PfKRS1
Cc1csc(N2CCCN(C(=O)CCN3CCCC3=O)CC2)n1,-3.641%,-12.09%,-7.366%,-1.433%
O=C1CC2(CCN(Cc3ccoc3)CC2)CN1Cc1cc(F)cc(F)c1,5.869%,-7.481%,-0.9534%,6.338%
COc1cccc2c1N(CC(=O)Nc1ccc(Br)cn1)CCC2,-2.963%,-7.175%,2.566%,3.364%
CNC(=O)C(C)(C)N1CCC[C@H]1C(=O)NCCN(C)C,-4.292%,-3.376%,-23.58%,4.073%
CCOCC(=O)N1C[C@@H]2CCN(c3cnccn3)C[C@@H]2C1,0.995%,-2.848%,-9.781%,2.152%
Cc1nc(NC2CC(C)(C)NC(C)(C)C2)c2c(n1)c(C)nn2C,-2.346%,-4.282%,-11.4%,1.257%
CCNc1cc2c(nn1)CCN(C(=O)C1COc3ccccc3O1)C2 (configuration not stated),3.127%,-6.328%,-29.29%,2.517%
Cc1ccc(CC2CCCN(S(C)(=O)=O)C2)nc1 (configuration not stated),-,9.866%,3.925%,4.319%
COCc1nc(C(=O)NS(=O)(=O)c2ccc(C)cc2C)cs1,-1.559%,8.836%,12.51%,3.446%
O=C(N[C@@H]1CN(Cc2ccc(F)cc2)C[C@H]1O)c1cscn1,-,-10.82%,1.906%,0.1829%
CN(C)C(=O)Cc1nc(CN2CCCC2Cn2cncn2)cs1 (configuration not stated),1.354%,-5.511%,2.054%,-3.762%
Cn1nnnc1SCC1Cc2ccccc2O1 (configuration not stated),2.386%,-12.7%,-14.64%,0.08516%
CCn1ccnc1CN1CCN(CCOc2ccccc2C#N)CC1,1.591%,-15.15%,-9.737%,-0.4233%
CCc1noc(C)c1C(=O)N1CCCN(Cc2csc(C)n2)CC1,0.1649%,-4.8%,-6.457%,1.92%
COCC(=O)N1CCc2[nH]nc(-c3ccc4c(c3)OCO4)c2C1,0.5947%,-4.505%,-34.81%,-0.369%
Cc1nn(C(C)C)c(C)c1CN1CCC(c2cc(C(C)C)n[nH]2)CC1,-1.941%,-1.366%,-26.77%,7.784%
CNC(=O)CN(C)C(=O)Cc1csc(C(C)C)n1,10.16%,-8.994%,-10.19%,0.8211%
Cc1cc2ncn(C[C@]3(O)CCCN4CCCC[C@@H]43)c2cc1C,6.891%,0.6776%,-2.086%,-0.815%
CCC[C@H]1CN(C(=O)c2ccc3[nH]c(CO)nc3c2)C[C@@H]1N,-0.306%,0.9068%,2.069%,-0.01109%
CCc1cc(O)nc(C2CCCN2C(=O)c2cccnc2)n1 (configuration not stated),1.083%,7.531%,1.623%,0.3095%
CN(C)C(=O)COC[C@]12COC[C@H]1CN(Cc1ccccc1)C2,-8.076%,-6.43%,-5.155%,0.764%
O=C(NCC1CC1)c1n[nH]c2c1CNCC2,-2.991%,-5.562%,-23.49%,-0.3212%
Cc1nnc(-c2cccc(N3CCC(NC(C)CC(C)C)CC3)c2)s1 (configuration not stated),1.729%,-18.16%,-12.34%,1.091%
Cc1cnc(-c2nc(NC3CC3)ncc2-c2onc(C)c2C)cn1,-0.6275%,11.13%,7.538%,2.613%
Cc1ncc(CNCC2CCC(C(N)=O)CC2)n1-c1ccccc1 (configuration not stated),-1.767%,14.78%,-,-4.101%
COCCn1c(=O)n(Cc2ccccc2C)c2cc(C(=O)O)ccc21,-0.8215%,-5.289%,-20.24%,9.249%
COc1cccc(CNC(=O)c2nc3c(o2)CN(S(C)(=O)=O)C3)c1,0.4845%,3.551%,-26.87%,4.827%
NS(=O)(=O)c1cnn(-c2ccc(NC(=O)CC3CCCC3)cn2)c1,0.3734%,-12.05%,-,2.742%
Cc1nccn1-c1ccc(NS(=O)(=O)c2cccnc2)cn1,-5.333%,-12.5%,-29.27%,4.1%
Cc1ccc(C(=O)NCC2(O)CCOCC2)cc1F,2.205%,-7.334%,-30.11%,4.974%
CCNC(=O)[C@@H]1C[C@H](N)CN1Cc1ccc(Sc2ccc(C)cc2)o1,1.583%,-9.236%,-15.27%,3.399%
CCN(Cc1ccc(F)c(F)c1)Cc1nc2c(cnn2C)c(=O)[nH]1,-4.639%,-32.6%,-4.818%,4.186%
CN(CCS(=O)(=O)c1cc(Cl)ccc1Cl)CC(=O)Nc1cccc(F)c1,0.07788%,-18.76%,-49.48%,7.148%
CSc1nc2ncc3c(=O)n(CCN4CCCCC4)ccc3n2n1,-1.202%,-16.23%,-0.5917%,-0.7593%
Cc1nc(CN2CCC3(CC2)C(=O)N(C)CCN3C)cs1,-,-10.37%,-10.77%,3.82%
Cc1ccnc(NCCNC(=O)Cc2c(C)[nH]c3c(C)ccc(C)c23)c1,10.73%,-6.768%,1.369%,-7.951%
COc1cccc(-c2nccnc2C2CCN(C(C)=O)CC2)c1,-3.93%,4.416%,-33.57%,1.998%
Cc1cc(NC(=O)Cn2cc(C#N)c(=O)c3cc(Br)ccc32)no1,-5.506%,-14.11%,-19.56%,-0.6229%
Cc1nccn1C1CCCN(C(=O)c2cc3c(F)cccc3[nH]2)C1 (configuration not stated),-4.699%,-23.65%,4.098%,0.3815%
O=c1[nH]ncc(NCCOc2ccc3c(c2)CCC3)c1Cl,-6.089%,-0.659%,-25.78%,1.671%
COCCOCC(C)NC(=O)COc1nn(C)c2nc(C)cc(C)c12 (configuration not stated),4.279%,-4.292%,-15.68%,3.613%
Cc1ccccc1CC(C)(C)NC(=O)COc1cccc(C(N)=O)c1,5.218%,0.8563%,4.244%,6.097%
CCc1nc(C)c(-c2nccn2CC2CCN(C3CCCC3)CC2)[nH]1,0%,1.558%,-14.51%,6.329%
O=C(c1cccc2ncccc12)N1CCC(Nc2cccnn2)CC1,-0.3894%,-16.58%,-18.48%,-1.054%
O=C(Cn1ccc2sccc2c1=O)NC1CCCCC1,4.666%,-15.69%,-10.75%,1.126%
COCc1nc(C(=O)N(Cc2ccccc2)CC(C)C(=O)O)cs1 (configuration not stated),-3.749%,6.293%,-25.89%,4.108%
COc1ccccc1OCc1nc(C(C)C)no1,20.46%,-1.53%,-0.1016%,-0.3396%
CC(NC1(CNS(C)(=O)=O)CCCC1)c1ccccc1 (configuration not stated),-7.333%,11.2%,-27.48%,4.407%
CN(CCc1ccccc1)Cc1cc(C(=O)N2CCCC2(C)C)no1,3.207%,6.454%,7.736%,4.059%
Cc1nc(SC2CCN(c3sccc3C#N)C2=O)oc1C (configuration not stated),3.084%,-1.782%,-11.69%,-0.8213%
CS(=O)(=O)N1CCC2(CCN(C(=O)c3cccs3)CC2)CC1,-,1.872%,-,2.969%
Cn1nc(CN2CCCCC2)c2c1CN(C(=O)c1cccc(C#N)c1)C2,0.2513%,10.97%,-25.55%,-2.885%
CSc1ncccc1C(=O)N1C[C@H]2CC[C@@H]1CN(CC(=O)N(C)C)C2,-2.681%,17.55%,1.446%,-9.45%